Assay: in vivo
Conditions: male, Sprague-Dawley, rat, plasma, po, 30 mg/kg

In the case of `O=C(O)c1cn(C2CC2)c2cc(N3CCNCC3)c(F)cc2c1=O` [Ciprofloxacin, reference compound], the AUC is reported as 4650 ± 160 ng·h/mL, the Cmax is reported as 1490 ± 220 ng/mL and the Tmax is reported as 26.4 ± 12 min.
